Measured values: PubChem BioAssay AID588590 (National Center for Advancing Translational Sciences (NCATS), 2011)
“And” between values parts separate entries of the source, which are not always exact repeats. Equal entries are not always repeated. Among all 390,000 compounds or so, about 4,000 (1%) were called active. Inconclusive means that the source gave no clear call. Such entries were picked first, then a sample of the others. The call rests on the fitted dose curve; in most records, active means well fitted inhibition curve with a large enough effect; inconclusive means small, poorly fitted or top-dose-only effect, or another doubt; inactive means no such curve, though single readings can be large or run the other way. A potency beside an inconclusive call is a rough fit, not a confirmed value.
Potency means the concentration at half of the fitted maximal effect.

Sequences of proteins named here, by UniProt entry; tags and fusion partners are left off. A change or cut given only in a name is not applied to a line headed by its entry.
UniProt Q9UNA4: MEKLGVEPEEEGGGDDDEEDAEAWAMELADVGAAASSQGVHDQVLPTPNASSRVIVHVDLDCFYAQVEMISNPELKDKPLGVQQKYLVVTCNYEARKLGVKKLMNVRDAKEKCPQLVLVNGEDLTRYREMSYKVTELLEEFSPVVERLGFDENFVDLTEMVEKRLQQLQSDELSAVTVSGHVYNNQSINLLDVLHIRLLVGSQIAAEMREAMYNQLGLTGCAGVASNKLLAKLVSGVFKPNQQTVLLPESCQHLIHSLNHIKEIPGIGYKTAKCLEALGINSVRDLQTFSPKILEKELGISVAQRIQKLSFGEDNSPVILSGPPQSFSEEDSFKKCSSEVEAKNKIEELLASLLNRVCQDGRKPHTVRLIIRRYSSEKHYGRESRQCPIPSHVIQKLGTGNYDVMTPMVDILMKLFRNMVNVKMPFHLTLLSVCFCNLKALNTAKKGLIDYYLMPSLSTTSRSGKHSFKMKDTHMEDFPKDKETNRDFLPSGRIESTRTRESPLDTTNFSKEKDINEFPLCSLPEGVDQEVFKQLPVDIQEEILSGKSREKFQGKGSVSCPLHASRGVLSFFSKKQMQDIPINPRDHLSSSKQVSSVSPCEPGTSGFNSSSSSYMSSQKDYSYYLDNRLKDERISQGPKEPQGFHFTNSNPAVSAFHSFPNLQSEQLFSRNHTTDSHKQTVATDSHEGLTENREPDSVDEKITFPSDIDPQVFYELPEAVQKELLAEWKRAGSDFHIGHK

These compounds were tested against DNA polymerase iota (Homo sapiens) (UniProt Q9UNA4) (assay: qHTS for Inhibitors of Polymerase Iota). Conditions: Pol iota fluorescent replication assay, 10 min; series mostly up to 115 µM.
Summary of the method: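 Pol iota at 10 nM preincubated 15 min with compounds at room temperature; reaction started with fluorescent substrate, 50 nM final. Fluorescence read kinetically at 0 and 10 min; buffer-only wells as negative control.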
For NC(=O)[C@@H]1CCNc2c(I)cc([N+](=O)[O-])cc2C(=O)N[C@@H](CCC(=O)O)C(=O)N[C@@H](CO)C(=O)N1, the Potency was inconclusive: 20 µM [inhibitor, partial curve, poor fit].
In the case of Nc1nccnc1C(=O)OCC(=O)c1ccc[nH]1, the Potency was inconclusive: 50.1 µM [inhibitor, partial curve, poor fit].
In the case of CCOC(=O)Nc1ccc2c(CN3CCC(C(=O)OC)CC3)cc(=O)oc2c1, the Potency was inconclusive: 79.4 µM [inhibitor, single point].
CN(C)c1ccc(N=Cc2ccnc3ccccc23)cc1 was tested, and the Potency was inconclusive: 89.1 µM [inhibitor, partial curve, poor fit].
For Nc1nc(SCC(=O)N2CCc3ccccc32)[nH]c(=O)c1-c1ccccc1, the Potency was “inactive”.
O=c1[nH]c2ccccc2n2c(-c3ccccc3)nnc12 was tested, and the Potency was inconclusive: 2.82 µM [inhibitor, full curve, poor fit] and inconclusive: 22.4 µM [inhibitor, full curve, poor fit].
With CN(c1ccccc1C(=O)Nc1ccccc1C(=O)NCc1ccco1)S(C)(=O)=O the Potency was inconclusive: 79.4 µM [inhibitor, partial curve, poor fit].
For CC(=O)Nc1ccc(S(=O)(=O)NC2(C(F)(F)F)C(=O)NC(C)=C2C#N)cc1 (configuration not stated), the Potency was active: 22.4 µM.
In the case of O=C(C1CCCN1C(=O)c1cccs1)N1CCc2ccccc21 (configuration not stated), the Potency was inconclusive: 39.8 µM [inhibitor, single point].
In the case of OC(CBr)C[n+]1cccc2cc(Br)ccc21 (configuration not stated), the Potency was “inactive”.
COC(=O)c1ccccc1NC(=O)Cn1ccnc1 was tested, and the Potency was inconclusive: 14.1 µM [inhibitor, partial curve].
COC(=O)CCC/C=C1/SCC(NC(=O)c2ccccc2)C1O (configuration not stated) was tested, and the Potency was inconclusive: 25.1 µM [inhibitor, single point].
COc1cc(C)c(CNC2CCCCC2)cc1C was tested, and the Potency was inconclusive: 100 µM [inhibitor, single point].
With O=C(Nc1ccc2c(c1)OCO2)C(c1ccc(Cl)cc1)N1CCC2(CC1)OCCO2 (configuration not stated) the Potency was inconclusive: 17.8 µM [inhibitor, partial curve, poor fit].
In the case of Cn1c(=S)[nH]c2[nH]c(=O)cnc2c1=O, the Potency was “inactive”.
For COCC(=O)N/N=C/c1c(C)[nH]n(-c2ccccc2)c1=O, the Potency was inconclusive: 14.1 µM [inhibitor, partial curve].
For O=C(O)c1ccc2c(=O)n(-c3ccc(F)cc3)c(=S)[nH]c2c1, the Potency was inconclusive: 31.6 µM [inhibitor, single point].
With CCC(=O)N1CCc2cc(S(=O)(=O)NCCC(=O)NC(C)c3ccccc3)ccc21 (configuration not stated) the Potency was “inactive”.
With CCC(C)C(NC(=O)OC(C)(C)C)C(=O)NC1COC2CC(n3cc(F)c(=O)[nH]c3=O)OC12 (configuration not stated) the Potency was “inactive”.
With CCOC(=O)c1c(C)cc(O)cc1O the Potency was inconclusive: 14.1 µM [inhibitor, partial curve, poor fit].
In the case of Nc1nc(NCCc2ccccc2)nc(NCc2ccccc2)c1[N+](=O)[O-], the Potency was inconclusive: 70.8 µM [inhibitor, partial curve, poor fit].
For Cc1sc2nc(SCC(=O)Nc3cccc(C(=O)O)c3)[nH]c(=O)c2c1C, the Potency was inconclusive: 15.8 µM [inhibitor, full curve].
With O=C1CCC2CCCCC2(O)O1 (configuration not stated) the Potency was inconclusive: 2.51 µM [inhibitor, partial curve, poor fit].
In the case of Cc1[nH]nc2c1C(=O)CCC2, the Potency was inconclusive: 10 µM [inhibitor, partial curve, poor fit].
For CCOc1ccc(S(=O)(=O)N2CCN(C(=O)c3sccc3C)CC2)cc1, the Potency was “inactive”.
With O=C(N/N=C/c1ccc(Cl)cc1)c1sccc1OCc1ccc(F)cc1 the Potency was inconclusive: 44.7 µM [inhibitor, partial curve, poor fit].
In the case of COc1ccc(NC(=O)Nc2nnc(SCC(=O)Nc3cccc(C)c3C)s2)cc1, the Potency was “inactive”.
For CCN(CC(=O)NCCc1ccc(F)cc1)Cc1nc2ccccc2c(=O)[nH]1, the Potency was inconclusive: 100 µM [inhibitor, single point].
With Cc1[nH][nH]c(=O)c1C(c1ccc(Br)cc1)c1c(C)[nH][nH]c1=O the Potency was inconclusive: 28.2 µM [inhibitor, partial curve, poor fit].
In the case of COc1ccc(C(=O)Nc2cccc3cccnc23)cc1OC, the Potency was “inactive”.
For Cc1cc(=O)oc2cc(NC(=O)COc3ccccc3[N+](=O)[O-])ccc12, the Potency was inconclusive: 1.41 µM [inhibitor, full curve].
In the case of CC(=O)OCC1=C(C(=O)O)N2C(=O)C(NC(=O)Cn3nc(C(F)F)c(Cl)c3C)C2SC1 (configuration not stated), the Potency was inconclusive: 4.47 µM [inhibitor, full curve, poor fit].
With COC(=O)c1cn(C(=O)c2ccc(C)cc2C)c2ccccc12 the Potency was inconclusive: 89.1 µM [inhibitor, single point].
CCCOc1ccc(C(=O)Nc2cc3nn(-c4ccc(CC)cc4)nc3cc2C)cc1 was tested, and the Potency was “inactive”.
For COc1cc(C(=O)Nc2ccc(F)cc2Cl)ccc1OCC(=O)N1CCOCC1, the Potency was “inactive”.
In the case of CC(C)(C)c1ccc(NC(=O)COC(=O)CCN2C(=O)c3cccc([N+](=O)[O-])c3C2=O)cc1, the Potency was inconclusive: 56.2 µM [inhibitor, partial curve, poor fit].
Cc1c(C(=O)O)cccc1-c1ccc(/C=C2\SC(=O)NC2=O)o1 was tested, and the Potency was inconclusive: 39.8 µM [inhibitor, single point].
In the case of N#CC(C(=O)CCN1C(=O)C2CC=CCC2C1=O)c1nc2ccccc2[nH]1 (configuration not stated), the Potency was inconclusive: 3.98 µM [inhibitor, partial curve, poor fit].
For CN1CCN(C(=O)C2CCCN(S(=O)(=O)c3ccc(Cl)cc3)C2)CC1 (configuration not stated), the Potency was “inactive”.
For COc1ccccc1CNC(=O)COC(=O)c1ccccc1-c1ccccc1, the Potency was inconclusive: 89.1 µM [inhibitor, single point].
In the case of Cc1c(C(=O)NCc2ccco2)oc2ccc(Br)cc12, the Potency was inconclusive: 56.2 µM [inhibitor, partial curve, poor fit].
O=C1NC(=S)SC1=C1CCCCCC1 was tested, and the Potency was inconclusive: 31.6 µM [inhibitor, single point].
